The text below walks through data of publication PMC11241864.

Chains of the proteins cited; added tags and fusions are not shown.
UniProt Q61188: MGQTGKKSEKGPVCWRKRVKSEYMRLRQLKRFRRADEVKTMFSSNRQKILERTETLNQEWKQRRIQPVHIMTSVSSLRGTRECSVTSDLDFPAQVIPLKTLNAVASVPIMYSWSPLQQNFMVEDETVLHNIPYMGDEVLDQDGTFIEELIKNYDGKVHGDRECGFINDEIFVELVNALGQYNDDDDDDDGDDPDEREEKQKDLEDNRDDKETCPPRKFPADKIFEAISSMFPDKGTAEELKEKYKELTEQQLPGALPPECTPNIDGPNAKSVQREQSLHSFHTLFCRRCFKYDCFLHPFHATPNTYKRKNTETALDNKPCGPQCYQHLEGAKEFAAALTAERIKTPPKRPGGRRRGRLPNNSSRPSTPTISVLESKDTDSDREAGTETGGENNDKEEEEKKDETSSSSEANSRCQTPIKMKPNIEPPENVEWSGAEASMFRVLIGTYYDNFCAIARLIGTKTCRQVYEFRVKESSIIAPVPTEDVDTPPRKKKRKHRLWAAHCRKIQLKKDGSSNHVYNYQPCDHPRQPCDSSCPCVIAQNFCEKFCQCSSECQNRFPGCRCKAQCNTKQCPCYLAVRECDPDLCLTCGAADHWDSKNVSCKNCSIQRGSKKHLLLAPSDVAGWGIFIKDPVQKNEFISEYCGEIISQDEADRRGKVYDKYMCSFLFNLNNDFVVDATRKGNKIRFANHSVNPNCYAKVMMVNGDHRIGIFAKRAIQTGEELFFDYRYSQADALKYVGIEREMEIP

These are yes or no findings as the source states them, for the method shown. In cells and extracts the contact can be indirect. Some entries that bind do so weakly or less than the wild type.

The assay has as its target T1, bromodomain protein 7 (BRD7) (mouse (endogenous in GC-1spg)) (UniProt O88665).
T1 sequence: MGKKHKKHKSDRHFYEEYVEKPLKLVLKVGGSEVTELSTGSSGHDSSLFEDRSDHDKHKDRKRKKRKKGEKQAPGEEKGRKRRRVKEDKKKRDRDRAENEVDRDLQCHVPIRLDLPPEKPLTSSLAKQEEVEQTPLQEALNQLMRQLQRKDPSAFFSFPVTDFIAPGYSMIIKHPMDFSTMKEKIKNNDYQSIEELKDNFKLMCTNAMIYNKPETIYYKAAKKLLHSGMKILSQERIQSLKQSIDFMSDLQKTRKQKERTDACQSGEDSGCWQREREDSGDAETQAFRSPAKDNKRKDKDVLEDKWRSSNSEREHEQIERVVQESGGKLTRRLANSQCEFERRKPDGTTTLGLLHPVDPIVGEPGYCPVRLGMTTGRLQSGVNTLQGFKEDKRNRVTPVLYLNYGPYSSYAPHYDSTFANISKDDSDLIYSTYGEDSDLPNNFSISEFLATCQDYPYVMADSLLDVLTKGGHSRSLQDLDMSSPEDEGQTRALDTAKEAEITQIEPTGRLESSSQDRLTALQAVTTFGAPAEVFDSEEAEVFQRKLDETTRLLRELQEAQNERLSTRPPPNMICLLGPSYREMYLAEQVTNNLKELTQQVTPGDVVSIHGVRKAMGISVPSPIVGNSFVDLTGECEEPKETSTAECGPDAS
Briefly: co-IP; 1 mg GC-1spg cell lysate (IP lysis buffer) incubated with anti-BRD7, anti-DNMT3a or normal IgG at 4 °C overnight; Protein A/G magnetic beads; eluates analysed by Western blotting.

Take EZH2 (from UniProt Q61188 1-746): the binding result is “binds”.
